Reference: PubChem BioAssay AID485353 (National Center for Advancing Translational Sciences (NCATS), 2010)
Out of some 330,000 compounds screened, about 610 (0.18%) were called active. The inconclusive results got no clear call from the source; some entries with a clear call stand among them for comparison. Calls come from the whole dose curve. A potency beside an inconclusive call is a rough fit, not a confirmed value.

test: qHTS of Yeast-based Assay for SARS-CoV PLP; note: nearly all actives have a fitted effect of over 55% in size; for activity, positive = growth rescue: 0% is about no effect; conditions: S. cerevisiae expressing SARS-CoV PLpro; Potency: growth rescue; activity, positive = growth rescue: at 32.9 µM (top of the series)
Potency is the fitted concentration of half-maximal effect.

Compound | activity, positive = growth rescue | Potency
Cc1ccc(S(=O)(=O)CCSC(=N)N)cc1 | inactive: 0.717% | 
Cc1ccc(S(=O)(=O)CCc2ccccn2)cc1 | inactive: -6.22% | 
O=C(COc1ccc(Br)cc1F)NC1CCN(Cc2ccccc2)CC1 |  | inconclusive: 20 µM [activator, single point]
COc1ccc(OC)c(CCNC(=O)c2ccc(CS(=O)Cc3ccc(Cl)cc3)o2)c1 (stereo not drawn) |  | inconclusive: 20 µM [activator, single point]
Cc1cc(NC(=O)CS(=O)(=O)Cc2ccccc2)no1 | inactive: 0.297% | 
O=C(CN(c1cccc([N+](=O)[O-])c1)S(=O)(=O)c1ccccc1)NCc1ccccc1 |  | inconclusive: 11.2 µM [activator, single point]
Cc1noc(C)c1CSc1cc(C)c2ccccc2n1 |  | inconclusive: 2.51 µM [activator, single point]
CCCN(C(=O)c1cc(CC)c(C)s1)c1c(N)n(Cc2ccccc2)c(=O)[nH]c1=O |  | inconclusive: 3.55 µM [activator, single point]
O=C(COC(=O)c1ccccc1NCCO)NNC(=O)c1cccs1 |  | inconclusive: 12.6 µM [activator, single point]
CCn1ccnc1CN(C)C(=O)C1CCC(=O)N(CCc2cccc(F)c2)C1 (stereo not drawn) |  | inconclusive: 3.98 µM [activator, single point]
CCn1cc2nc(SCC(=O)Nc3ccccc3F)n(Cc3ccccc3)c(=O)c2n1 |  | inconclusive: 0.398 µM [activator, full curve, poor fit]
O=C(c1ccc2c(c1)OCO2)N(Cc1ccco1)C1(C(=O)NC2CCCCC2)CCCCC1 | inactive: -11.7% | 
Nc1nc(SCC(=O)Nc2cc(Cl)c(Cl)cc2Cl)n[nH]1 |  | inconclusive: 14.1 µM [activator, partial curve]
Cc1ccc2nc(Nc3nc(CSc4nnc(C)s4)cc(=O)[nH]3)nc(C)c2c1 | inactive: 0.0056% | 
CCC(=O)Nc1ccc(-c2ccc(N3CCN(C)CC3)nn2)cc1 |  | inconclusive: 0.398 µM [activator, full curve, poor fit]
O=C(O)c1cccc(N=NN2CCCCCC2)c1 |  | inconclusive: 11.2 µM [activator, single point]
COc1ccc(-c2cn3cccnc3n2)cc1NC(=O)C(C)Oc1ccccc1 (stereo not drawn) |  | inconclusive: 3.55 µM [activator, single point]
CNC(C)C#Cc1c(-c2cc(OC)c(OC)c(OC)c2)noc1C (stereo not drawn) | inactive: 12.9% | 
Cc1ccsc1C(=O)NNC(=O)C1CC=CCC1C(=O)O (stereo not drawn) |  | inconclusive: 4.47 µM [activator, single point]
O=C(NN=Cc1ccccc1OC(F)F)c1ccc(NS(=O)(=O)c2cccs2)cc1 |  | inconclusive: 17.8 µM [activator, single point]
CNS(=O)(=O)c1cccc(C(=O)OCc2cc(=O)n3cc(Br)ccc3n2)c1 | inactive: 23.1% | 
COc1cccc(N(C(=O)c2ccco2)C(C(=O)NC2CCCC2)c2ccc(N(C)C)cc2)c1 (stereo not drawn) |  | inconclusive: 12.6 µM [activator, partial curve]

Compound | activity, positive = growth rescue | Potency
Cc1cc(-c2ccccc2)nc(-c2ccccc2)c1C | inactive: -4.93% | 
Cc1cc(-n2c(C)cc(C(=O)CCl)c2C)no1 |  | inconclusive: 5.01 µM [activator, partial curve]
CCC(=O)Nc1cc(-c2cc3ccccc3oc2=O)ccc1OC | inactive: -0.623% | 
CCN1CCN(c2nc3ccccc3nc2C(C#N)C(=O)OC2CCCCC2)CC1 (stereo not drawn) |  | inconclusive: 3.98 µM [activator, partial curve]
Cc1ccc(NC(=O)c2oc3ccc(S(=O)(=O)N4CCC5(CC4)OCCO5)cc3c2C)cc1C |  | inconclusive: 15.8 µM [activator, partial curve]
C/C(=N/NC(=O)CNC(=O)/C=C/c1ccccc1)c1ccco1 |  | inconclusive: 3.98 µM [activator, single point]
Cc1cccc(C(C)C)c1NC(=O)COC(=O)Cc1ccsc1 |  | inconclusive: 10 µM [activator, partial curve]
Cc1cccc(C)c1OCCCCCNCCO |  | inconclusive: 4.47 µM [activator, partial curve]
COc1nc(SC)nc(Cl)c1Cc1ccc(OC(C)C)cc1 | inactive: -10.2% | 
O=C(Nc1nc(-c2ccccn2)cs1)C1COc2ccccc2O1 (stereo not drawn) |  | inconclusive: 3.98 µM [activator, single point]
N#CCCN(/N=C/c1cccnc1)C1=NS(=O)(=O)c2ccccc21 | inactive: -3.06% | 
COCCCN(C(=S)Nc1ccc(C)cc1Cl)C(C)c1ccncc1 (stereo not drawn) |  | inconclusive: 7.94 µM [activator, partial curve]
COCc1nnc(NC(=O)c2ccc(S(=O)(=O)N(C)C3CCCCC3)cc2)o1 |  | inconclusive: 20 µM [activator, single point]
Cc1cccc(N(C)C(=O)c2coc(=O)c3ccccc23)c1 |  | inconclusive: 12.6 µM [activator, partial curve]
COc1cc2[nH]c(=O)c(C(=O)NCCCN3CCOCC3)c(O)c2cc1OC | inactive: 0.22% | 
CSc1ccc(C(=O)C2CCCN(C(=O)CCc3cnn(C)c3)C2)cc1 (stereo not drawn) |  | inconclusive: 17.8 µM [activator, single point]
CNC(=O)NC(=O)C(OC(=O)CCNS(=O)(=O)c1ccccc1)c1ccccc1 (stereo not drawn) |  | inconclusive: 17.8 µM [activator, single point]
CCOC(=O)c1c(-c2cccc([N+](=O)[O-])c2)csc1NC(=O)C1CC1 |  | inconclusive: 3.16 µM [activator, single point]
Cc1ccc2nc(-c3ccccc3)nc(SC(C)C(=O)NCc3cccs3)c2c1 (stereo not drawn) |  | inconclusive: 4.47 µM [activator, single point]
CN(Cc1ccccc1)S(=O)(=O)c1ccc(NS(C)(=O)=O)cc1 |  | inconclusive: 12.6 µM [activator, partial curve]
C#CCOCCOCCOCCNc1nc(N2CCN(C(=O)[C@H](Cc3cc4ccccc4[nH]3)n3cc([C@@H](N)C(C)CC)nn3)CC2)nc(N2CCN(C(=O)[C@H](Cc3cc4ccccc4[nH]3)n3cc([C@@H](N)Cc4ccc(O)cc4)nn3)CC2)n1 (stereo partly drawn) | inactive: -1.36% | 

Given with tabs: two of the compounds above.
Compound	activity, positive = growth rescue	Potency
COc1ccc(-c2cn3cccnc3n2)cc1NC(=O)C(C)Oc1ccccc1 (stereo not drawn)		inconclusive: 3.55 µM [activator, single point]
CNC(C)C#Cc1c(-c2cc(OC)c(OC)c(OC)c2)noc1C (stereo not drawn)	inactive: 12.9%	
